One sequence from US20050130227A1 (MUNIN, published 2005) can be followed below.

Chains of the proteins cited; added tags and fusions are not shown. A line that says so, or that is headed by a name, gives the form on record, which may keep a tag or linker.
mGPBP cDNA clone product (lambda gt11 fusion) (Mus musculus), one chain, as listed by the source: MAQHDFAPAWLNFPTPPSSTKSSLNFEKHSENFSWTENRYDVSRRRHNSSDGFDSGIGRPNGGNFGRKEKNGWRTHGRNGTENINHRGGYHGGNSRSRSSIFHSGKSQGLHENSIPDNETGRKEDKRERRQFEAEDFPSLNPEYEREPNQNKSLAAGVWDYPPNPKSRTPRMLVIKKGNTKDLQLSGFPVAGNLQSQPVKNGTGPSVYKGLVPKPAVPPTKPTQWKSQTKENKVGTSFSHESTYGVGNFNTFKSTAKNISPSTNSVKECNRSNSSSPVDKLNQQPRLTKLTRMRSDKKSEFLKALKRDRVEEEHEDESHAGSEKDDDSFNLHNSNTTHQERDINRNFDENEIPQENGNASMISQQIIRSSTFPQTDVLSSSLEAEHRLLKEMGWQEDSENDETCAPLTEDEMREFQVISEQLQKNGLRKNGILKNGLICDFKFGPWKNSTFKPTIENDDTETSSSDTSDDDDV

For at least one entry, the source does not settle the construct or the ends of the probe. Results from cells or extracts need not show a direct contact. No signal at the amounts used counts as a negative.

For this series, the system named is mGPBP cDNA clone product (lambda gt11 fusion) (Mus musculus). The experiment in a line: binding assay. Conditions: negative control probe in library screen; clones binding it were eliminated; protein in a lysate after overexpression; protein details: lambda gt11 expression library clone, partial cDNA.

With “TGGGCGGGGC (double strand) [Sp1 consensus motif probe]”, the binding result was “no binding”.
